Experimental data: doi:10.1101/2020.06.27.175620 (bioRxiv, 2020)
Where two headings read alike, the source gives them in different places. No constants are given. Whether binding was seen depends on the method and setting. For some assays here: Binding seen in cells or lysates may run through a third protein. Some entries that bind do so weakly or less than the wild type. Blank lines part the entries; values can stand above or below the binder they belong to.

How the values were obtained:
[1] = molecular target: T1, cytochrome b of CIII2 (Rhodobacter capsulatus, UniProt D5ANZ3 1-437); experiment: cryo-EM structure
T1 sequence: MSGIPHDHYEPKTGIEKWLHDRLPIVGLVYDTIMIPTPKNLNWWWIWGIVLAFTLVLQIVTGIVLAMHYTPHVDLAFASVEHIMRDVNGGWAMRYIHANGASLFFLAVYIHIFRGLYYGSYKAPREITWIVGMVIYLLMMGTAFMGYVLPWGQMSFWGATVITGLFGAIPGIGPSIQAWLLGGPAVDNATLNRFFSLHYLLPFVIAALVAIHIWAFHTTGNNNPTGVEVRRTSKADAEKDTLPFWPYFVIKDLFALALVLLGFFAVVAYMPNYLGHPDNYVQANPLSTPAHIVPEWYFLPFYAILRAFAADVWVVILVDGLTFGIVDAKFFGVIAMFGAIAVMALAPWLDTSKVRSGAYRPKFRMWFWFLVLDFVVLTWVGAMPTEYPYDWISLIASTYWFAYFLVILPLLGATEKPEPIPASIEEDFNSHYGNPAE

[2] = molecular target: T2, CcoP subunit of the cbb3-type CIV (Rhodobacter capsulatus) (UniProt D5ARP7); experiment: cross-linking
T2 sequence: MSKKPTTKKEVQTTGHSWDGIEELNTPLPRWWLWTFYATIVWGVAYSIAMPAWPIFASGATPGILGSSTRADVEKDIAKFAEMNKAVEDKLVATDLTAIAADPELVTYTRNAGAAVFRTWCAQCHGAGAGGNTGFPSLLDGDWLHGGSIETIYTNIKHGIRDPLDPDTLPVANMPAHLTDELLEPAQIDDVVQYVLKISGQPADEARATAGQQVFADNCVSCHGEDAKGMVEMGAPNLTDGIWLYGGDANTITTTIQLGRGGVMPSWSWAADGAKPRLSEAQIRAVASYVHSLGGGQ

[3] = molecular target: T3, cytochrome c1 of CIII2 (Rhodobacter capsulatus) (UniProt D5ANZ4); experiment: cross-linking
T3 sequence: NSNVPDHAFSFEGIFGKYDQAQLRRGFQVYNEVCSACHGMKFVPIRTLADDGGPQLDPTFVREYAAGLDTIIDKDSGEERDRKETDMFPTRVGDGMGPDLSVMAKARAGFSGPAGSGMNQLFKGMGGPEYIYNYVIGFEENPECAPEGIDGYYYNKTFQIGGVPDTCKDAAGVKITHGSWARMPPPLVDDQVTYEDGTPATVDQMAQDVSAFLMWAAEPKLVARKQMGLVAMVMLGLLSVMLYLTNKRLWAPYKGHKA

[4] = molecular target: T3, cytochrome c1 of CIII2 (Rhodobacter capsulatus); experiment: cryo-EM structure

- binding [1]: binds
- binding ([1]; record 2): binds
B1: CcoP subunit of the cbb3-type CIV (protein, UniProt D5ARP7 1-297)
chain: MSKKPTTKKEVQTTGHSWDGIEELNTPLPRWWLWTFYATIVWGVAYSIAMPAWPIFASGATPGILGSSTRADVEKDIAKFAEMNKAVEDKLVATDLTAIAADPELVTYTRNAGAAVFRTWCAQCHGAGAGGNTGFPSLLDGDWLHGGSIETIYTNIKHGIRDPLDPDTLPVANMPAHLTDELLEPAQIDDVVQYVLKISGQPADEARATAGQQVFADNCVSCHGEDAKGMVEMGAPNLTDGIWLYGGDANTITTTIQLGRGGVMPSWSWAADGAKPRLSEAQIRAVASYVHSLGGGQ

- binding [2]: binds
- binding [3]: binds
B2: cytochrome c2 (soluble cytochrome c) (protein, UniProt P00094 22-137)
chain: GDAAKGEKEFNKCKTCHSIIAPDGTEIVKGAKTGPNLYGVVGRTAGTYPEFKYKDSIVALGASGFAWTEEDIATYVKDPGAFLKEKLDDKKAKTGMAFKLAKGGEDVAAYLASVVK

- binding [4]: binds
B3: Rieske FeS protein of CIII2 (natural protein, Rhodobacter capsulatus)
chain: MSHAEDNAGTRRDFLYHATAATGVVVTGAAVWPLINQMNASADVKAMASIFVDVSAVEVGTQLTVKWRGKPVFIRRRDEKDIELARSVPLGALRDTSAENANKPGAEATDENRTLPAFDGTNTGEWLVMLGVCTHLGCVPMGDKSGDFGGWFCPCHGSHYDSAGRIRKGPAPRNLDIPVAAFVDETTIKLG
